{"source": "patent US20210223229A1", "about": "“IMMUNE FUNCTION INSPECTION METHOD, CANCER PATIENT CATEGORIZATION METHOD, CANCER TREATMENT EFFICACY PREDICTION METHOD, AGENT FOR INCREASING INTRACELLULAR CALCIUM ION CONCENTRATION, AGENT FOR INCREASING SELECTIVE FUNCTION OF EFFECTOR MEMORY (EM) AND EFFECTOR (EFF) IN TUMOR TISSUE, AND METHOD FOR …” (NATIONAL UNIVERSITY CORPORATION OKAYAMA UNIVERSITY, priority 2016, published 2021)", "tested_on": "glucose transporter (Glut1) in CD8TIL", "assay": "Glut1 expression versus changes in glucose concentration in CD8TIL, MethA tumor", "type": "in vivo, BALB/c mice", "conditions": "6-hour in-vitro culture", "protocol": "Syngeneic tumor (MethA) 2×10^6 was intradermally injected to 8-week old BALB/c mice, and administration of metformin (5 mg/mL) was started from Day 7. Three days after the treatment, the tumor-infiltrating T cells (TIL) were separated. After culture in the presence of a culture solution having a glucose concentration of 0, 0.1, 1.2, 6.1, 12.5, or 25 mM at 37° C. for 0, 1, 3, 6 hours, the cells were stained with CD3, CD8, and glucose transporter (Glut1) antibodies, followed by analysis using a flow cytometer (FIG. 9).", "data": [{"smiles": "CN(C)C(=N)N=C(N)N", "note": "[metformin]", "values": [{"measurement": "glucose concentration at which the highest Glut-1 level was observed", "value": 6.1, "unit": "µM"}, {"measurement": "glucose concentration of the culture solution at which the highest Glut-1 up-regulation was observed", "value": "≥ 6.1", "unit": "mM"}]}]}
